At least one compound was matched to its structure with a doubt left.
Columns and labels:
Format in all cases: in vivo, mouse
[1] = system: GFAP; test: GFAP immunostaining (glial activation) in cerebellum of treated SCA1 mice
[2] = system: SCA1 mice; test: Rotarod assay in SCA1 mice
[3] = system: IL-1β, IL-6 mRNA; test: Quantitative real-time PCR of proinflammatory cytokines in cerebellum of treated SCA1 mice; settings: Example I, 15 mg/kg i.p. alternate days for two months, normalized to GAPDH
[4] = Body weight of SCA1 mice; settings: Example I, 15 mg/kg i.p., weights at 2, 3 and 4 months of age
[5] = system: c-Jun phosphorylation in Bergmann glia; test: c-Jun-pS63 immunostaining of Bergmann glia in cerebellum of treated SCA1 mice
[6] = system: Purkinje cells; test: Purkinje cell pathology (calbindin molecular layer thickness, VGLUT2 climbing fibers) in SCA1 mice

In the case of `Oc1c2ccccc2c2c3c(cccc13)N=N2` [SP600125, anthra [1,9]pyrazol-6 (2H)-one], the “glial activation marker GFAP” value ([1]; Example I, 15 mg/kg i.p. alternate days for two months) is reported as “reduction”, the “GFAP staining in Bergmann glial layer (reactive phenotype)” value ([1]; Example II) is reported as “clear down regulation” and the rotarod performance ([2]; Example I, SCA1 mice, 15 mg/kg i.p., improvement only after a month, P<0.05 two months post treatment) is reported as “significant improvement”. For the same molecule, the “performance on rotarod (latency to fall)” value ([2]; Example II, SCA1 mice vs vehicle treated SCA1 mice) was “improved performance”, the “increase in IL-1β mRNA in SCA1 cerebellum” value [3] was “reversed” and the “increase in IL-6 mRNA in SCA1 cerebellum” value [3] was “not IL-6 was reversed”. For the same molecule, the “weight loss in SCA1 mice” value [4] was “not improved”, the “c-Jun phosphorylation in the BG layer” value ([5]; Example I, SCA1 mice, 15 mg/kg i.p. alternate days for two months from 2 months of age) was “decrease” and the “increase of S100/c-Jun-p563 staining in Bergmann glial cells” value ([5]; Example II, SCA1 mice treated i.p. for two months, 5-6 months old cerebellum) was “clearly abolished”. The “climbing fiber extension along PC dendrites (VGLUT2)” value ([6]; Example I, 4-month-old SCA1 mice) was “improved”, the “thickness of the cerebellar molecular layer (calbindin)” value ([6]; Example I, 4-month-old SCA1 mice vs vehicle control) was “significant increase” and the “molecular layer thickness (calbindin)” value ([6]; Example II, SCA1 mice vs vehicle treated mice) was “significant improvement”.
